Among the data in patent publication US20100136580A1 (Genentech, published 2010) are binding values, retold here.

Experiment [1] concerns the target T1, GST-Dvl2PDZ fusion protein (human, UniProt O14641 248-364).
T1 construct: range 248-364; Made with the pGEX E. coli expression system; also called GST-PDZ fusion protein; not shown: glutathione S-transferase (GST) encoded by plasmid pGEX
T1 sequence (looked up): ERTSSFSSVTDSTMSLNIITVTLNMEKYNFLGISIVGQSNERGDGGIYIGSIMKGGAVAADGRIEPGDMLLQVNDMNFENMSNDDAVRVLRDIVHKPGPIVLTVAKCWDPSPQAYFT
As to the kind of experiment: phage display selection on GST-Dvl2PDZ. The method, then:
The libraries were cycled through rounds of binding selection with a GST-Dvl2PDZ fusion protein coated on 96-well Maxisorp immunoplates as the capture target. Phage were propagated in E. coli XL1-blue with M13-KO7 helper phage and 10 μM IPTG. After four rounds of binding selection, individual phage clones were analyzed in a high-throughput phage ELISA, and positive clones were subjected to DNA sequence analysis.
We used decapeptide libraries fused to the C-terminus or N-terminus of the phage coat protein. The library contained NNK degenerate codons that encoded all 20 natural amino acids. The possible occurrence of amber stop codons in the degenerate codon also provided for the display of shorter peptides for the C-terminal library. Each library was cycled through four rounds of binding selection with immobilized GST-Dvl2PDZ fusion protein as the capture target.

Experiment [2] concerns the target T2, endogenous Dvl1 (HEK293S cell lysate) (human) (UniProt O14640).
T2 sequence (looked up): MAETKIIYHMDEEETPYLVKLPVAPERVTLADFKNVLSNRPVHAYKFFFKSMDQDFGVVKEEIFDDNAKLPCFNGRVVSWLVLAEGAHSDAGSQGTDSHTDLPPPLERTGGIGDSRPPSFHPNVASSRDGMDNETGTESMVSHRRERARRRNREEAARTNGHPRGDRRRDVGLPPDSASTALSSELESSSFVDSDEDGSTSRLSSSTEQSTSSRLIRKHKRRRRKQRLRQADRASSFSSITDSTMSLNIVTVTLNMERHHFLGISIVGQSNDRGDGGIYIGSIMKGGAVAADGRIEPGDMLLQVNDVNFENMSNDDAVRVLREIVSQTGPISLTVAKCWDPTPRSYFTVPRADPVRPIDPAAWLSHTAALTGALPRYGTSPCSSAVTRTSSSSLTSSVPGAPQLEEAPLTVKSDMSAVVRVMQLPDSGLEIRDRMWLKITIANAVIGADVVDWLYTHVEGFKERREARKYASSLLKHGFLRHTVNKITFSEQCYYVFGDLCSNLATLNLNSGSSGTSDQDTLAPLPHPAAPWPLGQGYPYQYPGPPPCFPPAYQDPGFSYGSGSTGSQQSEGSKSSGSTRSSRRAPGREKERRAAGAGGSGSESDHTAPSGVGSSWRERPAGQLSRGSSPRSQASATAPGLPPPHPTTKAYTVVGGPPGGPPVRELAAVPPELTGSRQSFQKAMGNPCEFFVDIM
Briefly: GST pull-down from HEK293 cell lysate, western blot.

For experiment [3], the target named is T3, endogenous Dvl3 (HEK293S cell lysate) (human) (UniProt Q92997).
T3 sequence (looked up): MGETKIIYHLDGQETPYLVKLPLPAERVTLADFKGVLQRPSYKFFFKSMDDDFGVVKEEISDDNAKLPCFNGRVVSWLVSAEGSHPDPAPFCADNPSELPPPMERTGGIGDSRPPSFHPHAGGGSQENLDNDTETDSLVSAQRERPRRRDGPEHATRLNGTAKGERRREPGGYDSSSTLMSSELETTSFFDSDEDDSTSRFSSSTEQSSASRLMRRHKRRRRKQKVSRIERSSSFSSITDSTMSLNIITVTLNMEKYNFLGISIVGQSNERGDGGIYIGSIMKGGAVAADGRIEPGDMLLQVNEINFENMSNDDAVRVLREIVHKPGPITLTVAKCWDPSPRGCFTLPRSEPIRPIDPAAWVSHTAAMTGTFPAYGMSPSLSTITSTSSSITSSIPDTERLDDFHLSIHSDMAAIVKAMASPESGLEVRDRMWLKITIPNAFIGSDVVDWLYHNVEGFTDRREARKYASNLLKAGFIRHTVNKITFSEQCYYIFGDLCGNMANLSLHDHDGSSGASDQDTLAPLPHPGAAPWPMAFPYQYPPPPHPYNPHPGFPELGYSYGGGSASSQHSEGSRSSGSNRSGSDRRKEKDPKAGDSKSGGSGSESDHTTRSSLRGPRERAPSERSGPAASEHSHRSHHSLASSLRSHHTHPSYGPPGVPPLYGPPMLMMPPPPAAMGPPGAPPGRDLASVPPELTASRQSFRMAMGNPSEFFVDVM
The experiment is described as above.

Experiment [4] has as its target T2, endogenous Dvl1 (HEK293S cell lysate) (human). Briefly: GST pull-down from HEK293S cell lysate, western blot. In general terms: In western blotting, separated proteins are transferred to a membrane and probed.
For experiment [5], the target named is T3, endogenous Dvl3 (HEK293S cell lysate) (human). The experiment is described as above.

No constants are given. Whether binding was seen depends on the method and setting. For some of these results: Binding seen in cells or lysates may run through a third protein. Some binding calls cover weakened binding; strength is not graded here. Tags and fused reporters may be left off the sequences shown.

For ETWIDGPM [SEQ ID NO 155], the binding entry in experiment [1] is “binds”.
As to VLWSDFPPR [SEQ ID NO 126], the binding entry in experiment [1] is recorded as “binds”.
The same measure, in the same setting: for IWVDGPLYT [SEQ ID NO 163] the value was “binds”.
For the molecule GGGKWYGWL (peptide, not shown: a dimerising Fc or GST) [GST-DVLpep fusion protein (GST fused with peptide … at its C-terminus)], the binding result in experiment [2], in experiment [3], in experiment [4] and in experiment [5] was “binds” in each case.
